Experiment [1] has as its target HA-c-Myc-(204–295aa) deletion (human) (UniProt P01106). As to the kind of experiment: co-IP; HCT116 cells transfected with plasmids of HA-c-Myc full-length or deletion constructs; IP with anti-HA antibody, western blotting. (In general: In western blotting, separated proteins are transferred to a membrane and probed.)
The target in experiment [2] is HA-c-Myc-(413–434aa) deletion (human) (UniProt P01106). The description is as above.

The chains behind the UniProt entries cited, without tags or fusion partners. Where a name states a change or a piece, a line headed by the entry shows the natural chain unless it says otherwise.
UniProt P01106: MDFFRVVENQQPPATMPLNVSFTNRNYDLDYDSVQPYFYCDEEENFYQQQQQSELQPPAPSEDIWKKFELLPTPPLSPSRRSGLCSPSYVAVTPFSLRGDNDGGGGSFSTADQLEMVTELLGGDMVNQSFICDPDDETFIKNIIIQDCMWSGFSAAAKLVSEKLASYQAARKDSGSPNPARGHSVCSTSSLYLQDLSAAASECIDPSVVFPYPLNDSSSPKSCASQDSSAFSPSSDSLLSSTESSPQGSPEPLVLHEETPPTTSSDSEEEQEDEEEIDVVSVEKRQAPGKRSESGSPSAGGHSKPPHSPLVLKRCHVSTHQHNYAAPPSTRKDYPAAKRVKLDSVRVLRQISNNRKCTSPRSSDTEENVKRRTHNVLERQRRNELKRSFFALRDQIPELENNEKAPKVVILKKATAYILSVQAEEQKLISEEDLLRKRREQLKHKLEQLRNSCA

The text below walks through data of paper PMC10834545.

No constants are given. Whether binding was seen depends on the method and setting. Binding seen in cells or lysates may run through a third protein. Binding calls can cover weak binding; strength is not graded here. Sequences can lack the tags named with a protein.

B1: FSTL3 protein found with HA-c-Myc constructs in HCT116 cells (protein, UniProt O95633 27-263)
chain: MGSGNPAPGGVCWLQQGQEATCSLVLQTDVTRAECCASGNIDTAWSNLTHPGNKINLLGFLGLVHCLPCKDSCDGVECGPGKACRMLGGRPRCECAPDCSGLPARLQVCGSDGATYRDECELRAARCRGHPDLSVMYRGRCRKSCEHVVCPRPQSCVVDQTGSAHCVVCRAAPCPVPSSPGQELCGNNNVTYISSCHMRQATCFLGRSIGVRHAGSCAGTPEEPPGGESAEEEENFV
In the case of B1, the binding entry in experiment [1] and in experiment [2] was “binds” throughout.
